## Primary screen of a compound library

Values are the deposited “Percent Effect”, in %.
The controls that fix the scale are not given in the record; negative values are as filed.
This is an unselected part of the compounds tested.

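Cell assay of Leishmania donovani living inside macrophages; the read-out is not stated. Tested at 30 µM. Direction is inferred from retests: higher values go with stronger inhibition. Size under these conditions: about 69,000 compounds, about 1,000 of them at 50% or above in at least one test.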

structure	effect
COc1ccc(C(=O)N2C[C@@H](C(=O)O)[C@H](c3ccccc3)C2)c(O)c1	2.606%
COCCc1noc(CN2CCCC2Cn2nc(C)nc2C)n1 (stereo unspecified)	-29.47%
Cc1cnn(CC2CN(CC(=O)Nc3sccc3C#N)CCO2)c1 (stereo unspecified)	24.17%
Cc1cc(C)n(CC2CCCN2C(=O)c2ccc3[nH]cnc3c2)n1 (stereo unspecified)	-64.34%
COc1cccc(/C=C/CCN2CCCN(C(C)=O)CC2)c1	19.76%
CC(C)c1nc(C2CCCN(c3nccc(N4CCCC4)n3)C2)no1 (stereo unspecified)	39.12%
Cc1csc(C(C#N)C(=O)NCc2cccnc2)n1 (stereo unspecified)	-0.09898%
CC(C)(C)c1nnc(NCC(=O)N2CCc3sccc3C2)s1	-13.2%
Cn1cc(N2CCC3(CCCN(Cc4ccc(F)cc4)C3)C2=O)cn1.O=C(O)C(F)(F)F (stereo unspecified)	4.651%
Cc1nc(C)n(CC2CCCN2Cc2nc3ccccc3nc2C)n1 (stereo unspecified)	-36.87%
O=C(Nc1ccnc(OC2CCOC2)c1)c1cc(F)ccc1F (stereo unspecified)	-67.68%
CC(c1ccco1)N(C(=O)Cn1nc2n(c1=O)CCCCC2)C1CC1 (stereo unspecified)	-5.38%
CC(=O)c1c(C)nn(S(=O)(=O)c2ccc(F)cc2)c1C	3.144%
COc1cc(Cl)c(C)cc1NC(=O)CNc1ccn(CC(N)=O)n1	21.8%
Cc1ccc(N2C[C@H](C)[C@]3(CCN(c4cccnc4)C3=O)C2)nn1.O=C(O)C(F)(F)F.O=C(O)C(F)(F)F	31%
COc1cccc2ccn(CC(=O)NCC(C)C)c12	22.68%
Cc1ccccc1CN(C)C(=O)CN1CCCC(Cn2cncn2)C1 (stereo unspecified)	27.29%
COc1cc(C(=O)NS(=O)(=O)c2cncc(Br)c2)cc(Cl)c1OC	10.38%
CC(C)c1ocnc1C(=O)N1CCC2(CC1)OCCO2	-2.884%
O=C(O)C(F)(F)F.[H][C@]12CC[C@@]3(N=C(C)N(CC4CC4)C3=O)[C@@]1([H])CN(Cc1cccc(Cl)c1)C2	11.77%
COc1ccc(CN2CCn3c(CNS(C)(=O)=O)nnc3C2)cc1	-43.03%
COc1ccc(CCCN(C)C(=O)c2cc(Cl)c[nH]2)cc1OC	32.32%
CC(C(=O)N1CCCN(c2ncccc2C#N)CC1)n1cncn1 (stereo unspecified)	-0.1895%
CCS(=O)(=O)N1CCn2cc(CN(C)Cc3ccco3)nc2C1	26.9%
Cc1cc(C(=O)N2CCC3(CC2)CN(CCN(C)C)C(=O)O3)nc(C)n1	28.12%
OC(CN1CCN(CC2CCCCC2)CC1)c1ccccc1 (stereo unspecified)	24.85%
CC(C)N(CCNC(=O)c1[nH]nc2ccc(I)cc12)C(C)C	-6.595%
COc1ccc(CNC(=O)CNc2ccccc2OC)cc1	18.35%
Cn1ncnc1NCc1ccc(F)cc1	-70.18%
Cc1[nH]c2c(F)cccc2c1CC(=O)N1CCCC(N)CC1 (stereo unspecified)	-7.725%
COCc1nc(CNc2cccc(-c3csc(C)n3)c2)cs1	-17.78%
O=C(Cc1c[nH]c2ccccc12)N1CCN(C(=O)c2ccoc2)CC1	40.75%
O=C(CNCCn1cccn1)NCC1(c2ccccc2)CC1	19.6%
Cc1cc(-c2cccc3c2CCNC3)cnc1-n1cnnc1	4.233%
O=C(COCC(=O)N(c1ccccc1)c1ccccc1)N1CCCC1	16.76%
O=C(NCC1(O)CCOCC1)c1ccn(-c2ccccc2F)n1	23.95%
CC(=O)Nc1cc(CCC2CCN(C(=O)c3ccccn3)CC2)ccn1	28.54%
Cc1cnn(CC(C)NCCc2cccs2)c1 (stereo unspecified)	-11.14%
Cc1nnc(C(C)NCC2(c3c(F)cccc3F)CCCC2)o1 (stereo unspecified)	27.24%
COCC1CN(C(=O)Nc2cc(-n3cccc3)ccc2F)CCO1 (stereo unspecified)	7.734%
COCCN1CCC(CNC(=O)CCc2cc(F)ccc2F)C1 (stereo unspecified)	25.36%
Cc1ccc(SC2CCCC2)c(C(=O)NCCc2n[nH]c(=O)[nH]2)c1	-15.13%
Cc1nc(CC(=O)N2CCc3nc(-c4cnccn4)nc(O)c3C2)cs1	10.1%
COCCN(C)C(=O)c1nc2c(s1)CCCN2S(C)(=O)=O	6.37%
[H][C@]12CNC[C@@]1(C(=O)N(C)Cc1cnccn1)CN(Cc1ccccc1)C2	27.5%
Cn1cccc1CN(C(=O)Cc1cccs1)C1CC1	-11.25%
COCC(C)(O)CNC(=O)COc1ccccc1OC (stereo unspecified)	0.7875%
CN(C)c1ncnc2c1CCN(c1cc(C(F)(F)F)ncn1)CC2	8.246%
Clc1cccc(C2CCN(c3ncnc4c3CCNC4)C2)c1 (stereo unspecified)	76.01%
CNC(=O)CN1CCCC12CCN(C(=O)c1ccsc1)CC2.O=C(O)C(F)(F)F	26.43%
COc1cc(CNCC2CNc3ccnn3C2)ccn1 (stereo unspecified)	4.825%
c1ccc(CCN2CCN(c3ncnc4[nH]ccc34)CC2)cc1	15.55%
CC(C)Cc1ccc(S(=O)(=O)Nc2ccc(=O)n(C)c2)cc1	40.75%
c1cncc(Cc2nnc3n2CCN(CC2CCCNC2)CC3)c1 (stereo unspecified)	-3.529%
O=C(O)C(F)(F)F.[H][C@@]12CN(Cc3cccs3)C[C@]1([H])C(=O)N(c1cncnc1)C2	35.43%
[H][C@@]12CN(CCc3ccccc3)C[C@]1([H])OCCN2c1ncccn1	6.788%
CS(=O)(=O)N1Cc2ccnn2CC(C(=O)NCc2cccnc2)C1.O=C(O)C(F)(F)F.O=C(O)C(F)(F)F (stereo unspecified)	-12.23%
COc1ccc(CC(=O)NCCNS(=O)(=O)c2ccc(C)cc2)cc1	17.67%
O=C1CCN(C(=O)NCCc2c[nH]c3ccc(Cl)cc23)CCN1	-15.61%
COc1cccc(CNC(=O)c2cccnc2SC(C)C)c1	3.89%
Cc1noc(CN2CCN(c3cncc(Cl)n3)CC2)n1	51.54%
CS(=O)(=O)CCn1ccc(NC(=O)Cc2cccc(Cl)c2)n1	20.81%
COc1ccc(OCCN(C)S(=O)(=O)c2cnn(C)c2)cc1	-13.24%
Oc1ccccc1-c1n[nH]c(C2CCCO2)n1 (stereo unspecified)	8.97%
CCCS(=O)(=O)NCc1nc(C)cc(N2CCCC2)n1	12.19%
O=C(NC1CCc2nccn2C1)c1ccc(NC2CC2)nc1 (stereo unspecified)	-86.57%
Cc1ccccc1NS(=O)(=O)c1ccc(C(=O)O)cc1F	10.78%
O=C(O)C(F)(F)F.[H][C@]12CCN(C(=O)c3ccoc3)[C@@]1([H])CC[C@H](COCCN1CCCC1)O2	25.81%

For reference, 8 entries once more:

structure,effect
COc1cc(Cl)c(C)cc1NC(=O)CNc1ccn(CC(N)=O)n1,21.8%
COc1ccc(CNC(=O)CNc2ccccc2OC)cc1,18.35%
Clc1cccc(C2CCN(c3ncnc4c3CCNC4)C2)c1 (stereo unspecified),76.01%
CC(C)c1nc(C2CCCN(c3nccc(N4CCCC4)n3)C2)no1 (stereo unspecified),39.12%
Cc1cc(C)n(CC2CCCN2C(=O)c2ccc3[nH]cnc3c2)n1 (stereo unspecified),-64.34%
CC(C)Cc1ccc(S(=O)(=O)Nc2ccc(=O)n(C)c2)cc1,40.75%
O=C(O)C(F)(F)F.[H][C@]12CC[C@@]3(N=C(C)N(CC4CC4)C3=O)[C@@]1([H])CN(Cc1cccc(Cl)c1)C2,11.77%
CNC(=O)CN1CCCC12CCN(C(=O)c1ccsc1)CC2.O=C(O)C(F)(F)F,26.43%

Measurements from “University of Dundee, Small-Polar-MMV Screening Library” (2021), ChEMBL document CHEMBL3988442.